In patent US10864251B2, “Peptides of syndecan-1 for inhibiting angiogenesis” (Wisconsin Alumni Research Foundation, priority 2006, dated 2020):
Part of at least one peptide drawing is inferred or uncertain, most often the ends. Where no end group is shown, it is not given here.

Legend:
[1] = tested on: human dermal microvascular endothelial cells (HMEC-1); type: cell-based
Protocol: (§1) FIGS. 6A-6H—Inhibition of B82L fibroblast and HMEC-1 cell attachment and spreading on VN by synstatin82-130. B82L fibroblasts, which rely on the αvβ5 integrin for attachment to VN, and human dermal microvascular endothelial cells, which rely on both the αvβ3 and αvβ5 integrins for attachment to VN, were plated in the absence of peptide (FIGS. 6A, 6E) or in the presence of 0.1 (FIGS. 6B, 6F), 0.3 (FIGS. 6C, 6G) or 1 μM (FIGS. 6D, 6H) synstatin82-130 for 2 hr and processed as described in FIG. 2.
FIGS. 10A-10D—Dependence of HMEC cell attachment and spreading on integrin activation by Sdc1 and its inhibition by SSTN. (FIG. 10A) HMECs were plated for 2 hr either on Sdc1-specific antibody B-B4 to engage Sdc1 or on VN (10 μg/ml coating concentration) to engage the αvβ3 and αvβ5 integrins. Blocking antibodies LM609 (10 μg/ml, specific for αvβ3) and P1F6 (10 μg/ml, specific for αvβ5), SSTN (0.5 μM) or recombinant mouse Sdc1 ectodomain (mS1ED, 5 μM) were added. The ligand mimetic antibody WOW1 was used to detect activated αvβ3 integrin on cells plated on B-B4. (FIG. 10B) HMECs were treated with siRNA oligo specific for human Sdc1 for 48 hr prior to plating on VN. Sdc1 expression was quantified by flow cytometry using human Sdc1-specific mAb B-B4 or a control mouse IgG. (FIG. 10C-10D) The percentage of cell attaching or attaching and spreading was quantified for HMECs, HAEC and MAECs plated on VN for 24 hr in the presence of mS1ED or SSTN, or after siRNA silencing of Sdc1 expression in the presence of mAb LM609 to block αvβ3 integrin, P1F6 to block αvβ5 integrin, or both antibodies.
FIG. 14—Activity of SSTN peptides. A diagram of SSTN82-130 used in our experiments is shown. The gray letters designate amino acids that are identical or highly conserved across species (mouse, human, rat, hamster). […]
(§2) Cell adhesion and spreading assays were performed with modification to the previous procedures (Lebakken and Rapraeger, 1996. Briefly, human plasma vitronectin or fibronectin at 10-30 μg/ml were applied to nitrocellulose-coated ten well slides (Erie Scientific) and incubated for 1-2 h at 37° C. Slides were blocked with 1.0% heat-denatured bovine serum albumin for a minimum of 30 min at 37° C. Cells were detached from the substratum using 5 mM EDTA in Tris-buffered saline and resuspended in HEPES-buffered culture medium containing 0.1% heat-denatured BSA. Cells were plated at a density of 15,000 cells per well and allowed to attach and spread for 2 h prior to fixation in 4% paraformaldehyde in CMF-PBS. For fluorescence microscopy, fixed cells were permeabilized in 0.2% Triton X-100, labeled with rhodamine-conjugated phalloidin and analyzed using fluorescence microscopy. […]

Heating of SSTN peptide = type: physicochemical; settings: heating to 95° C.
B82L fibroblasts = type: cell-based, mouse; settings: B82L cells, 1 μM
Protocol: as §1, §2

In the case of “SNTETAFTSVLPAGEKPEEGEPVLHVEAEPGFTARDKEKEVTTRPRETV [synstatin82-130]”, the “effectiveness versus 10 μg/ml inhibitory antibodies LM609 and PIF6” value ([1]; 0.1-0.3 μM) is reported as “equal or more effective”, the “fold lower concentration giving inhibitory activity equal to mS1ED” value ([1]; HMECs or HAECs on vitronectin) is reported as 10 fold and the “concentration range with significant inhibitory properties” value ([1]; HMECs or HAECs on vitronectin, spreading and attachment) is reported as 0.1 to 0.3 µM. The spreading on vitronectin ([1]; HMECs, 0.5 μM) was “blocks spreading as effectively as the combined antibody treatment”, the “inhibitory activity after heating” value (Heating of SSTN peptide) was “lose its inhibitory activity” and the “cell attachment on VN” value (B82L fibroblasts) was “completely blocks any cell attachment”.
